# Results deposited as PubChem BioAssay AID1053209 (Peter MacCallum Cancer Centre, 2014)
# Assay: 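Follow-up of single siRNAs that strengthen doxorubicin killing in osteosarcoma cells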 (follow-up of hits)
# Cell system: mouse primary osteosarcoma cells
# Reagent: single siRNA against mouse genes, 25 nM (text also states 40 nM)
# Timing: about 120 h (48 h before drug, then 72 h with drug)
# Conditions: doxorubicin 100 nM (about IC30-40), added 48 h after transfection, for 72 h
# Detection: 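Viability measured by ATP luminescence with and without doxorubicin, each replicate scaled to non-targeting siRNA NT1, averaged over two replicates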
# Direction: viability with doxorubicin, vs NT1: higher = more viable cells under doxorubicin; viability ratio, doxorubicin over no drug: higher = less sensitisation to doxorubicin; viability without drug, vs NT1: higher = more viable cells without drug
# Call rule: 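Counted as active (class LC dox) if viability falls to 0.7 of NT1 or below under doxorubicin but stays within 0.7 to 1.1 without drug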
# In all, the deposit lists about 1,580 reagents; shown is a random part of them. Over the whole deposit, 207 (13%) were called active. 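Rows are single siRNAs; four siRNAs per gene were tested, a gene counting as confirmed only when at least two agree.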 Entries without a mark were called inactive. The numbers tell different reagents against one gene apart. No sequences are given here.
gene symbol,reagent,combined effect class,"viability with doxorubicin, vs NT1","viability ratio, doxorubicin over no drug","viability without drug, vs NT1"
Rps6 (ribosomal protein S6),1,low viability with and without drug,0.34,0.53,0.64
Rps6 (ribosomal protein S6),2,low viability with and without drug,0.36,1,0.36
Rps6 (ribosomal protein S6),3,low viability with and without drug,0.4,0.93,0.43
Rps6 (ribosomal protein S6),4,low viability only with doxorubicin; normal without drug (active),0.7,0.83,0.84
Asb17 (ankyrin repeat and SOCS box-containing 17),1,normal viability with and without drug,1.02,1.01,1.01
Asb17 (ankyrin repeat and SOCS box-containing 17),2,normal viability with and without drug,0.87,0.97,0.9
Asb17 (ankyrin repeat and SOCS box-containing 17),3,normal viability with and without drug,1.08,1.06,1.02
Asb17 (ankyrin repeat and SOCS box-containing 17),4,normal viability with and without drug,1.04,0.98,1.06
Chmp1a (charged multivesicular body protein 1A),1,normal viability with and without drug,0.9,0.93,0.97
Chmp1a (charged multivesicular body protein 1A),2,low viability with and without drug,0.42,0.7,0.6
Chmp1a (charged multivesicular body protein 1A),3,normal viability with and without drug,0.94,0.93,1.01
Chmp1a (charged multivesicular body protein 1A),4,normal viability with and without drug,0.86,1.02,0.84
Fmc1 (formation of mitochondrial complex V assembly factor 1),1,normal viability with and without drug,0.99,1.02,0.97
Fmc1 (formation of mitochondrial complex V assembly factor 1),2,low viability with and without drug,0.2,0.59,0.34
Fmc1 (formation of mitochondrial complex V assembly factor 1),3,normal viability with and without drug,0.88,0.85,1.03
Fmc1 (formation of mitochondrial complex V assembly factor 1),4,normal viability with and without drug,1.07,1.03,1.04
Aqp3 (aquaporin 3),1,normal viability with and without drug,0.84,1.05,0.8
Aqp3 (aquaporin 3),2,normal viability with and without drug,0.78,0.84,0.93
Aqp3 (aquaporin 3),3,low viability only with doxorubicin; normal without drug (active),0.68,0.71,0.96
Aqp3 (aquaporin 3),4,normal viability with and without drug,1.02,1,1.02
"Sf3b5 (splicing factor 3b, subunit 5)",1,normal viability with and without drug,0.98,0.99,0.99
"Sf3b5 (splicing factor 3b, subunit 5)",2,normal viability with and without drug,1.04,1.11,0.94
"Sf3b5 (splicing factor 3b, subunit 5)",3,low viability with and without drug,0.11,0.61,0.18
"Sf3b5 (splicing factor 3b, subunit 5)",4,low viability only with doxorubicin; normal without drug (active),0.42,0.53,0.79
Tmem220 (transmembrane protein 220),1,high viability only with doxorubicin,1.21,1.15,1.05
Tmem220 (transmembrane protein 220),2,normal viability with and without drug,1.06,1.08,0.98
Tmem220 (transmembrane protein 220),3,high viability only without drug,1.04,0.87,1.19
Tmem220 (transmembrane protein 220),4,normal viability with and without drug,1.06,1.1,0.96
"Psmc4 (proteasome (prosome, macropain) 26S subunit, ATPase, 4)",1,low viability only without drug,0.84,1.2,0.7
"Psmc4 (proteasome (prosome, macropain) 26S subunit, ATPase, 4)",2,low viability with and without drug,0.36,0.88,0.41
"Psmc4 (proteasome (prosome, macropain) 26S subunit, ATPase, 4)",3,low viability with and without drug,0.44,0.8,0.55
"Psmc4 (proteasome (prosome, macropain) 26S subunit, ATPase, 4)",4,low viability with and without drug,0.22,0.44,0.5
Nup62 (nucleoporin 62),1,low viability with and without drug,0.42,0.62,0.68
Nup62 (nucleoporin 62),2,low viability with and without drug,0.18,0.56,0.32
Nup62 (nucleoporin 62),3,normal viability with and without drug,0.91,1.2,0.76
Nup62 (nucleoporin 62),4,low viability with and without drug,0.4,0.69,0.58
Mfap5 (microfibrillar associated protein 5),1,normal viability with and without drug,0.98,0.94,1.04
Mfap5 (microfibrillar associated protein 5),2,normal viability with and without drug,0.88,0.92,0.96
Mfap5 (microfibrillar associated protein 5),3,normal viability with and without drug,0.9,0.94,0.96
Mfap5 (microfibrillar associated protein 5),4,normal viability with and without drug,1.05,1.04,1.01
Rpl36a (ribosomal protein L36A),1,normal viability with and without drug,1,1.3,0.77
Rpl36a (ribosomal protein L36A),2,low viability with and without drug,0.43,0.61,0.7
Rpl36a (ribosomal protein L36A),3,normal viability with and without drug,0.88,0.96,0.92
Rpl36a (ribosomal protein L36A),4,normal viability with and without drug,1.07,1.06,1.01
Polr2j (polymerase (RNA) II (DNA directed) polypeptide J),1,normal viability with and without drug,1.06,1.08,0.98
Polr2j (polymerase (RNA) II (DNA directed) polypeptide J),2,normal viability with and without drug,0.97,0.99,0.98
Polr2j (polymerase (RNA) II (DNA directed) polypeptide J),3,low viability only with doxorubicin; normal without drug (active),0.39,0.53,0.74
Polr2j (polymerase (RNA) II (DNA directed) polypeptide J),4,low viability only with doxorubicin; normal without drug (active),0.62,0.69,0.9
Phf5a (PHD finger protein 5A),1,low viability with and without drug,0.06,0.2,0.3
Phf5a (PHD finger protein 5A),2,low viability with and without drug,0.32,0.56,0.57
Phf5a (PHD finger protein 5A),3,low viability with and without drug,0.34,0.64,0.53
Phf5a (PHD finger protein 5A),4,low viability with and without drug,0.44,0.63,0.7
Rps14 (ribosomal protein S14),1,normal viability with and without drug,0.87,0.91,0.96
Rps14 (ribosomal protein S14),2,low viability with and without drug,0.26,0.54,0.48
Rps14 (ribosomal protein S14),3,low viability with and without drug,0.46,0.66,0.7
Rps14 (ribosomal protein S14),4,low viability with and without drug,0.32,0.8,0.4
Spc25,1,low viability only with doxorubicin; normal without drug (active),0.68,0.72,0.94
Spc25,2,low viability only with doxorubicin; normal without drug (active),0.6,0.75,0.8
Spc25,3,low viability with and without drug,0.56,0.9,0.62
Spc25,4,normal viability with and without drug,0.86,0.93,0.92
